Measurements published in article PMC8602261.
These are yes or no findings as the source states them, for the method shown. In cells and extracts the contact can be indirect. Some entries that bind do so weakly or less than the wild type. For some assays here: Where a sequence is shown, tags or fusion partners need not be part of it.

Amino acid sequences for entries named in this document (tags omitted). A change or cut given only in a name is not applied to a line headed by its entry. Residues count along the entry.
UniProt Q9NZQ7: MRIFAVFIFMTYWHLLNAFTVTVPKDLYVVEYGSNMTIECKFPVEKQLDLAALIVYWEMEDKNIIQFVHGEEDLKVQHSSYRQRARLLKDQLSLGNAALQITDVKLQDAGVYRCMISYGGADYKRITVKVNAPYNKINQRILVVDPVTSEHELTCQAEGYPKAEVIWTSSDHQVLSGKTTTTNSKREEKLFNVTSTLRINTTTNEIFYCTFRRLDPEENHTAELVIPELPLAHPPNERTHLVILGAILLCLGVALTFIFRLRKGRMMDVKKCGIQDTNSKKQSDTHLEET
programmed death-ligand 1 (PD-L1), endogenous (human (endogenous in PLC and MHCC-97H)): residues 19-290 of Q9NZQ7
UniProt Q8WUM4: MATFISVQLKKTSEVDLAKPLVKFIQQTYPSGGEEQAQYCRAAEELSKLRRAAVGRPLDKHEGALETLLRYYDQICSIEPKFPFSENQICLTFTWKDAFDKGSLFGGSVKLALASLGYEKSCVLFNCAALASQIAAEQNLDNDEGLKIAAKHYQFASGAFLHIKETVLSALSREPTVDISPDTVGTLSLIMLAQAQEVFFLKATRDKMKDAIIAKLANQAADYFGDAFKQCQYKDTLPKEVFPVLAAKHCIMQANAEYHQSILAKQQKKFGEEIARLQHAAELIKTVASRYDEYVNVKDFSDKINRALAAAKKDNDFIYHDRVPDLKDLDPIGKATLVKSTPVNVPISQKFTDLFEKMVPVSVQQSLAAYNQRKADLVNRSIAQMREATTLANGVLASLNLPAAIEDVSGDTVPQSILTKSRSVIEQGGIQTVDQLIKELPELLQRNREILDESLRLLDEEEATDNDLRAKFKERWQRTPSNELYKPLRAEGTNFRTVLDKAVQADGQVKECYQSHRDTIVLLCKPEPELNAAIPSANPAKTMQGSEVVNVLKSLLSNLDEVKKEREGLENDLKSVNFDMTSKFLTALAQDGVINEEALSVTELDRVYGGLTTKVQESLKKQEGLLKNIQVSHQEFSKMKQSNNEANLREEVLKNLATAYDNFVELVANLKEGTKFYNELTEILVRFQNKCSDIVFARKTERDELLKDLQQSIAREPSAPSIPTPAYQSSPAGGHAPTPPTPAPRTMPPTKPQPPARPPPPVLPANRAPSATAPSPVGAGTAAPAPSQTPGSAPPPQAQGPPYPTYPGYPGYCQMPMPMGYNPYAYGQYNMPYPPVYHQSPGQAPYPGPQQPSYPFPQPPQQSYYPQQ
UniProt P21926: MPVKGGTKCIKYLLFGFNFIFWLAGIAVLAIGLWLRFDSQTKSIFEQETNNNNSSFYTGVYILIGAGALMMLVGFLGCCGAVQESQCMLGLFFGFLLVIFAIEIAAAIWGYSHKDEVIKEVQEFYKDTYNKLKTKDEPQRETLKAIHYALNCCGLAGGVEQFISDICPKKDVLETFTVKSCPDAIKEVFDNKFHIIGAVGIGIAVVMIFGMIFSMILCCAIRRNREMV
UniProt P08962: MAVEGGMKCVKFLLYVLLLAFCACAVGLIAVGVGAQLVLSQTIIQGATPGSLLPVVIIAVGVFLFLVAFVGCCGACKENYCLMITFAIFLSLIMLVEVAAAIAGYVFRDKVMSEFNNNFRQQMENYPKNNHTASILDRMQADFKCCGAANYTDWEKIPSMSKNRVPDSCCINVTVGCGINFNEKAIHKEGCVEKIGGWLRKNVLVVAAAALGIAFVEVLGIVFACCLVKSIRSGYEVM
UniProt Q92905: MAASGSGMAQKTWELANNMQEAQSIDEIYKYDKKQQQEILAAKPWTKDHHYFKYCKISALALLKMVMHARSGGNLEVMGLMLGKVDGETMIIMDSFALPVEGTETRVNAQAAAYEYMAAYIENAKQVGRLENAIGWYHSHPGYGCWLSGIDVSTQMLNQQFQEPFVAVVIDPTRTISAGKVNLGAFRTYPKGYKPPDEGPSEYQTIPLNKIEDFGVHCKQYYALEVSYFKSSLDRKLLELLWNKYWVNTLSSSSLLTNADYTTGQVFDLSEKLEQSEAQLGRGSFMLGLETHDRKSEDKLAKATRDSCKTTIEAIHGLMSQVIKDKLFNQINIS

Key:
[1] = molecular target: T1, Flag-GOLM1 (Golgi membrane protein 1) (UniProt Q8NBJ4); assay: co-IP; PLC cells transfected with FLAG-GOLM1 or empty vector (control), cell lysate, IP using anti-FLAG magnetic beads, Western blot
T1 sequence: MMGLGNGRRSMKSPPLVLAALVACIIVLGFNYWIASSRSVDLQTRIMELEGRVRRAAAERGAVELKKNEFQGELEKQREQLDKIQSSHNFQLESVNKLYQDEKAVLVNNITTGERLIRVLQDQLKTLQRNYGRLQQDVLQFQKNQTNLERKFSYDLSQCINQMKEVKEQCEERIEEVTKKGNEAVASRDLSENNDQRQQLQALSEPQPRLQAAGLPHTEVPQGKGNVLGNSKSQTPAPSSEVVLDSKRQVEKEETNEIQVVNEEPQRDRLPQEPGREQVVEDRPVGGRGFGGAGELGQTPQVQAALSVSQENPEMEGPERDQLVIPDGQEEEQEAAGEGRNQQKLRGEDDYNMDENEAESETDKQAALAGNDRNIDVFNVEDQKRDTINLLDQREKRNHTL

[2] = molecular target: programmed death-ligand 1 (PD-L1), endogenous (human (endogenous in PLC and MHCC-97H)) (UniProt Q9NZQ7); assay: co-IP; endogenous proteins in MHCC-97H cells, Western blot
GST-GOLM1 = molecular target: T2, GST-GOLM1 (UniProt Q8NBJ4); assay: pull-down; GST pulldown; GST-GOLM1 expressed in E. coli and purified; full-length PD-L1 produced via in vitro translation; only the target purified
T2 sequence: T1 sequence

[3] = molecular target: T1, Flag-GOLM1 (Golgi membrane protein 1); assay: co-IP; exosomes of GOLM1^Flag PLC cells, IP using anti-FLAG magnetic beads, Western blot
[4] = molecular target: programmed death-ligand 1 (PD-L1), endogenous (human (endogenous in PLC and MHCC-97H)) (UniProt Q9NZQ7); assay: co-IP; endogenous proteins in exosomes of MHCC-97H cells, Western blot

For Alix (from UniProt Q8WUM4 1-868), the binding [1] was “binds”.

For CD9 (from UniProt P21926 1-228), the binding [1] was “binds”.

For CD63 (from UniProt P08962 1-238), the binding [2] was “binds” and the binding [1] was “binds”.

For “COP9 signalosome 5 (CSN5) (from UniProt Q92905 1-334)”, the binding [2] was “binds” and the binding [1] was “binds”.

For “full-length PD-L1, in vitro translated (from UniProt Q9NZQ7 1-290)”, the binding (GST-GOLM1) was “binds”.

With “programmed death-ligand 1 (PD-L1), endogenous (from UniProt Q9NZQ7 19-290)” the binding [3] was “binds” and the binding [1] was “binds”.

B1: Golgi membrane protein 1 (GOLM1), endogenous (protein, UniProt Q8NBJ4 1-401)
chain: T1 sequence
In the case of B1, the binding [2] is reported as “binds” and the binding [4] is reported as “binds”.
